Like-named read-outs stand apart in the source and are kept apart here.
Tested on: olfactory receptor cells
Details: grade 0 to 4, higher = more regeneration, drug 10 mg/kg oral daily

`CC(C)c1c(C(=O)Nc2ccccc2)c(-c2ccccc2)c(-c2ccc(F)cc2)n1CC[C@@H](O)C[C@@H](O)CC(=O)O` [atorvastatin] was tested, and the “average PGP 9.5 immunostaining grade” value (four days after 3-methylindole) was 0.64±0.51, the “average PGP 9.5 immunostaining grade” value (fourteen days after 3-methylindole) was 2.42±1.38 and the “average PGP 9.5 immunostaining grade” value (seven days after 3-methylindole) was 2.46±1.12. For the same molecule, the “average PGP 9.5 immunostaining grade” value (twenty eight days after 3-methylindole) was 3.7±0.48.
